EP4477673A1, “IMMUNOCONJUGATE AND USE THEREOF” (priority 2022, dated 2023)
These are yes or no findings as the source states them, for the method shown. A result given as binding can be weak or reduced; the word gives no strength.

Target: cynomolgus monkey PD-1 antigen protein (Sino Biological, 90311-C08H) (cynomolgus monkey)
Assay: SPR Biacore 8K

binding: binds
B1: A17m0902_hIgG4 (antibody, V domains shown)
VH: EVQLVESGGGLVQPGGSLRLSCAASGLTFSDYSMSWYRQAPGKGRELVAIISGSGVITHYVDSVKGRFTISRDNAKNTLYLQMRSLRAEDTAVYYCRAVSDWEDYWGQGTQVTVSS
notes: VHH-Fc antibody; not shown: human IgG4 Fc with hinge region and S228P (EU)
